Results on 63 compounds are retold here after PubChem BioAssay AID445 (National Center for Advancing Translational Sciences (NCATS), 2006).

A short description of the assay: IkB Signaling. The note with it: ABC-DLBCL IkBa-CBG/CBR dual luciferase ratio (green luciferase fused to IkBa over red control in OCI-Ly3 lymphoma cells), 4 h. The method, boiled down: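 Curves were fitted separately to fusion (green), unfused (red) and ratio luminescence, then classed by r2, magnitude and activity. Cells: OCI-Ly3, 4 h compound plus doxycycline at 37C; 10 uM MG-132 defined full response.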
[1] abbreviates: measured here: control luc red channel unless noted.

The list shows a part of the results. These are further read-outs of the screen, such as a control signal, another cell line or another target. No call is given for them. The list favours compounds with an active or inconclusive main result. Words in brackets tell the shape of the fitted curve; partial curves, single points and poor fits give uncertain potencies.

Consider `Cc1nn(-c2ccccc2)c2c1C1(C(=O)Nc3ccccc31)N1C(=N2)Sc2ccccc21` (centres undefined), for which, under setting [1], the AC50 (usually the concentration giving half of the maximal activity seen) was 39.8 µM [falling, partial curve]. For `O=C(Nc1ccc(Cl)cc1C(=O)Nc1ccncc1)c1ccco1`, under setting [1], the AC50 is 15.8 µM [falling, partial curve].

On to `CCc1sc(Nc2cccc(Cl)c2)nc1-c1cc2cccc(OC)c2oc1=O`, for which the AC50 under setting [1] is 10 µM [falling, partial curve]. On to `COc1ccc(NC(=O)CN2C(=O)C(C)(C)c3cc(S(=O)(=O)N4CCCCC4)ccc32)cc1Cl`, for which the AC50 under setting [1] was 1 µM [rising, single point]. Consider `CC(=O)C1=C(C)NC(SCSc2ccccc2)=C(C#N)C1c1cccnc1` (centres undefined), for which, under setting [1], the AC50 is 31.6 µM [falling, single point]. Still for that read-out and setting: next, `COc1ccc2oc(=O)c(-c3nnc(NCc4ccco4)s3)cc2c1`: 6.31 µM [rising, full curve] [measured here: IkB-luc green channel]. Take `COC(=O)C1=C(C)NC(=O)NC1c1cn(-c2ccccc2)nc1-c1ccc(OC)c(Br)c1` (centres undefined): the AC50 under setting [1] was 31.6 µM [falling, partial curve].

As to `Cn1c(-c2ccco2)nc2cc3ccccc3cc21`, the AC50 under setting [1] was 15.8 µM [falling, partial curve]. Still for that read-out and setting: next, `COc1cccc(-n2c(SCC(=O)c3ccccc3)nc3c([nH]c4ccccc43)c2=O)c1`: 2 µM [rising, partial curve].

For `CCCn1c(COc2cccc(C)c2)nc2ccccc21`, the AC50 under setting [1] was 25.1 µM [falling, single point].

Turning to `Cc1ccccc1-c1nnc(SCC(=O)N(C)c2ccccc2)o1`, under setting [1], the AC50 is 15.8 µM [falling, partial curve].

As for `Cc1ccc(S(=O)(=O)NCc2ccc(C(=O)N3CCN(c4ccccn4)CC3)cc2)cc1`, under setting [1], the AC50 was 12.6 µM [falling, partial curve]. On to `CCCCNc1nc2c(-c3cccc(C)c3)nnn2c2ccccc12`, for which, under setting [1], the AC50 was 25.1 µM [falling, single point]. Still for that read-out and setting: next, `CCn1c(SCC(=O)NCc2ccco2)nnc1C(C)C`: 25.1 µM [rising, single point] [measured here: IkB-luc green channel].

Consider `Cc1cccc(OCC(=O)Nc2cccc(C(=O)OCc3cc(=O)n4nc(C(C)C)sc4n3)c2)c1`, for which, under setting [1], the AC50 was 5.01 µM [falling, partial curve]. The same measure, in the same setting: next, `N/N=C1/CC(=O)NC(=O)N1`: 2.51 µM [falling, partial curve]; `Cc1ccccc1CCNC(=O)c1ccc(NC(=O)N2CC(C)Sc3ccccc32)cc1` (centres undefined): 15.8 µM [falling, partial curve]; `COc1ccccc1OCCn1c(C(C)O)nc2ccccc21` (centres undefined): 25.1 µM [rising, single point] [measured here: IkB-luc green channel]. Take `O=C(Cc1c(O)c2ccccc2[nH]c1=O)NC1CCCCCC1`: the AC50 under setting [1] is 1.26 µM [falling, full curve]. The same measure, in the same setting: next, `[N-]=[N+]=CC(=O)CC(c1ccccc1)N1C(=O)c2ccccc2C1=O` (centres undefined): 0.398 µM [falling, partial curve]; `Cc1ccc(C)c(Nc2nnc(-c3ccc(C)c(S(=O)(=O)N4CCN(C)CC4)c3)c3ccccc23)c1`: 39.8 µM [falling, single point]; `CCOc1ccc(NC(=O)CSc2oc(-c3cccs3)nc2S(=O)(=O)c2ccc(C)cc2)cc1`: 2 µM [falling, full curve, poor fit]. On the same count and under the same terms, next, `CCn1nc(C)c2c(-c3ccccc3)cc(=O)n(C(C)C(=O)Nc3cccc(F)c3)c21` (centres undefined): 12.6 µM [falling, partial curve, poor fit]; `Nc1nc2ccc(C(=O)Nc3ccccc3)cc2s1`: 15.8 µM [falling, partial curve]. Still for that read-out and setting: the figure for `Cc1ccc(C2=CC(c3ccccc3C)n3c(nc4ccccc43)N2)cc1` (centres undefined) is 3.98 µM [falling, partial curve]; for `COc1ccccc1NC(=O)Cn1cnc2c(cnn2-c2ccccc2)c1=O` it is 39.8 µM [falling, single point]; for `Cc1ccc2nc(/C(C#N)=N/O)[nH]c2c1` it is 39.8 µM [falling, single point].

On to `CCc1ccc(NC(=O)CN2CCN(C3CCCCC3)C(=O)C2=O)cc1`, for which the AC50 under setting [1] was 25.1 µM [falling, partial curve, poor fit]. On the same count and under the same terms, next, `Cc1ccc(/C=C(\C#N)C(=O)Nc2ccc(Br)cc2)o1`: 12.6 µM [falling, partial curve]; `Cn1c(CCNC(=O)c2ccco2)nc2cc(NS(=O)(=O)c3ccccc3)ccc21`: 10 µM [falling, partial curve]; `CN(C)CCNC(=O)CN1N=C(c2ccccc2)CCC1=O`: 0.0398 µM [falling, full curve, poor fit]. Same read-out and setting: next, `COc1cc(C2C(=O)N(C3CCCCCC3)CC(=O)N2Cc2ccccc2)ccc1OC(C)C` (centres undefined): 10 µM [falling, partial curve]. On to `CC(C)CCNC(=O)NC(=O)CSc1nnc(-c2ccccc2Br)o1`, for which the AC50 under setting [1] is 31.6 µM [falling, partial curve]. The same measure, in the same setting: next, `Cc1sc2ncnc(N3CCN(c4ncccn4)CC3)c2c1C`: 25.1 µM [falling, partial curve]; `COC(=O)c1ccc(NC(=O)CN(Cc2ccccc2)S(=O)(=O)c2ccc(C)cc2)cc1`: 7.94 µM [falling, full curve]; `CCCC(=O)N1CCc2cc(OC)c(OC)cc2C1COc1ccc2c(C)cc(=O)oc2c1` (centres undefined): 0.126 µM [falling, full curve]. Still for that read-out and setting: the figure for `COc1ccc(NC(=O)Cn2c(=O)cc(C)c3c(C)nn(C)c32)cc1` is 39.8 µM [falling, single point].

For the compound `Cc1ccc(Cl)cc1N1CCN(C(=O)c2cnn(C(C)(C)C)c2C2CCN(C(=O)OC(C)(C)C)CC2)CC1`, the AC50 under setting [1] is 25.1 µM [falling, partial curve]. The same measure, in the same setting: next, `CCOc1ccc(NC(=O)Cn2cc(C(=O)c3ccc(CC)cc3)c(=O)c3cc4c(cc32)OCO4)cc1`: 25.1 µM [falling, single point]; `CC(=O)N1CCc2c(sc3c2c(=O)n(-c2cc(Cl)ccc2C)c(=O)n3Cc2ccccc2F)C1`: 39.8 µM [falling, single point]. Still for that read-out and setting: next, `COC(=O)c1cc(Cl)ccc1NC(=O)CSc1ncc(S(=O)(=O)c2ccc(Br)cc2)c(=O)[nH]1`: 5.01 µM [falling, full curve]; `COc1ccc(C(=O)COC(=O)CCCC(=O)Nc2cc(C(F)(F)F)ccc2Cl)cc1`: 31.6 µM [falling, single point]; `O=C(Nc1nc2n(n1)C(c1ccc(Cl)cc1)CC(c1ccc(Cl)cc1)N2)c1ccco1` (centres undefined): 20 µM [falling, partial curve].

On to `CCCCOC(=O)c1ccc(NC(=O)c2cc(-c3cccs3)on2)cc1`, for which the AC50 under setting [1] is 0.126 µM [falling, full curve]. On the same count and under the same terms, the figure for `COc1ccc(-n2c(Cc3cccn3C)nnc2SCC(=O)N2CCCc3ccccc32)cc1` is 10 µM [falling, partial curve]; for `CCOc1ccc(OCC)c(NC(=O)CN2CCC(NC(=O)c3cccc(F)c3)CC2)c1` it is 31.6 µM [falling, partial curve]. On the same count and under the same terms, the figure for `Cc1ccc(Nc2c(-c3ccc(C)s3)nc3ncccn23)cc1` is 3.98 µM [falling, partial curve]; for `O=C(NCCc1ccc(Cl)cc1)c1cc(-c2ccc(Cl)cc2)n[nH]1` it is 10 µM [falling, partial curve]. Turning to `COc1ccccc1CNC(=O)c1ccc(-c2nc(CS(=O)(=O)c3ccc(C)cc3)c(C)o2)cc1`, the AC50 under setting [1] was 15.8 µM [falling, partial curve].

`Cc1cccc(C(=O)Nc2sc3c(c2C(=O)NC(C)C)CCCC3)c1`: the AC50 under setting [1] was 10 µM [falling, partial curve]. `Cc1ccccc1Cn1cc(/C=N/n2cnnc2)c2ccccc21`: the AC50 under setting [1] is 15.8 µM [falling, partial curve]. Regarding `CCOC(=O)c1ccc(NC(=O)CSc2nnc(-c3ccncc3)n2C)cc1`, the AC50 by setting is: (measured here: IkB-luc green channel) 39.8 µM [rising, single point]; (measured here: control luc red channel) 39.8 µM [rising, single point]. Consider `CCCCN1CCc2c([nH]c3ccccc23)C1=O`, for which the AC50 under setting [1] is 20 µM [falling, single point].

As for `CC(C)(C)OC(=O)N1CCC(c2c(C(=O)N3CCCCC3)cnn2-c2cccc(F)c2)CC1`, the AC50 under setting [1] is 12.6 µM [falling, partial curve]. Take `COc1cc(OC)c(NC(=O)c2noc3c2CSc2ccccc2-3)cc1Cl`: the AC50 under setting [1] is 25.1 µM [falling, single point].

With `CCCCn1c(SCC(=O)Nc2ccc(OCC)cc2)nc2ccsc2c1=O`, the AC50 under setting [1] was 0.158 µM [falling, partial curve, poor fit].

As for `CCc1ccccc1NC(=O)[C@@H](c1ccccc1)N1Cc2ccccc2C1=O`, the AC50 under setting [1] is 39.8 µM [falling, single point].

With `CCOc1ccc(-c2oc3ccc(C)cc3c(=O)c2O)cc1`, under setting [1], the AC50 was 2.51 µM [rising, full curve, poor fit].

With `c1csc(Cn2nnnc2CN2CCN(c3nc4ccccc4s3)CC2)c1`, the AC50 under setting [1] is 25.1 µM [falling, partial curve]. Still for that read-out and setting: the figure for `O=C(Nc1ccc(F)cc1)C1CCN(S(=O)(=O)c2ccc3c(c2)CCCN3C(=O)C2CCC2)CC1` is 39.8 µM [falling, single point]. For the compound `COC(=O)c1c(NC(=O)C2CC2)sc2c1CCCC2`, under setting [1], the AC50 was 3.98 µM [rising, single point]. Same read-out and setting: the figure for `CN1CCc2cc(Cl)c(O)cc2[C@@H](c2ccccc2)C1` is 39.8 µM [falling, partial curve]; for `CCOC(=O)c1cnc2ccc(C)cc2c1Nc1ccc(N(CC)CC)cc1` it is 12.6 µM [falling, partial curve].
